No constants are given. Whether binding was seen depends on the method and setting. Some binding calls cover weakened binding; strength is not graded here.
Target: MmpL10 expressed from pMV762::mmpl10 in the Δmmpl10 Mtb transposon mutant (mmpl10-complemented strain) (Mycobacterium tuberculosis) (UniProt P9WJU0)
Assay: flow cytometry on cells; whole bacteria fixed in 4% PFA mixed with varying concentrations of cytokine overnight at 4 °C; pellets stained with anti-IFN-γ Brilliant Violet 421 (clone 4S.B3) or anti-TNF-α Alexa Fluor 700 (clone MAb11); only the binder purified

Chains of the proteins cited; added tags and fusions are not shown. Lines headed by an entry give the natural chain unless they say otherwise; changes in a name come on top. Residues count along the entry.
UniProt P9WJU0, whole entry, stated change not applied: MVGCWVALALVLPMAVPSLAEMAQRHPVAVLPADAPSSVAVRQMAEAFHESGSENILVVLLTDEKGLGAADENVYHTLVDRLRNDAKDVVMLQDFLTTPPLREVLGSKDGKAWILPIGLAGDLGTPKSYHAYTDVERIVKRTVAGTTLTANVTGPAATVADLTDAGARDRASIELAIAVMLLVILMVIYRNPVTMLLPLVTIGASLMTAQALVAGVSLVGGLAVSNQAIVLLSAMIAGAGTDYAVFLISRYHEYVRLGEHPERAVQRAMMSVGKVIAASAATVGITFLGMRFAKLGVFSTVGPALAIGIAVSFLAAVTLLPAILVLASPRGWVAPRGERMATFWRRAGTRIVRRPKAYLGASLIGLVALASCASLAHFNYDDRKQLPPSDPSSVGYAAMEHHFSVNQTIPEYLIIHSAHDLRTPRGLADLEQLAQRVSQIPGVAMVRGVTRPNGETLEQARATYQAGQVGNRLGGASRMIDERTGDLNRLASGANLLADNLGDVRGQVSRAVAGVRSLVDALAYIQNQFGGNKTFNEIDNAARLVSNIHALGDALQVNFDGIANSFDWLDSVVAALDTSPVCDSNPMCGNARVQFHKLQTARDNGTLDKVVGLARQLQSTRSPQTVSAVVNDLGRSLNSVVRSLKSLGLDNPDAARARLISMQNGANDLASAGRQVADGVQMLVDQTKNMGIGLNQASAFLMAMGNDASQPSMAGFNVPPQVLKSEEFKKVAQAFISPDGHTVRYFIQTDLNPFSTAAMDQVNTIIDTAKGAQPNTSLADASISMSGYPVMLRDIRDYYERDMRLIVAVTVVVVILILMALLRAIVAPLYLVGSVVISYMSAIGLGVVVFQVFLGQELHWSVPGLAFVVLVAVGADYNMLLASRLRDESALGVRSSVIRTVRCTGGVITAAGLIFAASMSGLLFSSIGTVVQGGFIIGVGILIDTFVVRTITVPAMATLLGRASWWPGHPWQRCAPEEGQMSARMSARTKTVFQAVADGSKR
UniProt P01579, 24-161: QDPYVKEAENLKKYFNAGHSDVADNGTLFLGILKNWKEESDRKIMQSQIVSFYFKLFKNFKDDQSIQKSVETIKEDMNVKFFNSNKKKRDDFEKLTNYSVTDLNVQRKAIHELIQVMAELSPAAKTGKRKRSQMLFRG

recombinant human Interferon-γ (from UniProt P01579 24-161) (ligand)
binding: binds

From article PMC9715692
